Results deposited as PubChem BioAssay AID1053208 (Peter MacCallum Cancer Centre, 2014).
Shown is an unselected part of about 17,000 reagents tested. 788 of all reagents (4.7%) count as active. 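Calls rest on z-score classes alone; an extra cut-off of viability at most 70% of control was not applied to them.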 Reagents against one gene are numbered here.

- Aim: 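Synthetic lethal interactions between gene loss and doxorubicin in osteosarcoma cells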 (primary screen)
- Cells: mouse osteosarcoma cells, early-passage culture from an engineered mouse model of fibroblastic bone tumour
- Reagents: siRNA pool against mouse genes, 40 nM
- Time to read-out: about 120 h (48 h before drug, then 72 h with drug)
- Treatment: doxorubicin 100 nM for 72 h, roughly 30-40% inhibitory dose
- Read-out: 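Luminescent ATP signal taken as viability with or without 100 nM doxorubicin for 72 h; mean of two wells set against non-targeting siRNA and turned into robust z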
- Reading the numbers: viability z-score with doxorubicin and doxorubicin viability vs non-targeting: higher = more viable cells under doxorubicin; viability z-score without drug: higher = more viable cells with knock-down alone; z-score of drug to no-drug ratio: higher = less drug sensitisation by knock-down
- Hit rule: 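a pool counts as active when its viability z-score with doxorubicin is -2 or below and its z-score without drug lies between -2 and 2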

| gene symbol | reagent | combined z-score class | viability z-score with doxorubicin | viability z-score without drug | z-score of drug to no-drug ratio | doxorubicin viability vs non-targeting | call |
| --- | --- | --- | --- | --- | --- | --- | --- |
| Or7e173 (olfactory receptor family 7 subfamily E member 173) | 1 | no change with or without drug | -0.79 | -0.17 | -0.56 | 0.87 | inactive |
| Cc2d2a (coiled-coil and C2 domain containing 2A) | 1 | no change with or without drug | -1.57 | -0.17 | -1.46 | 0.8 | inactive |
| Olfm5 (olfactomedin 5) | 1 | no change with or without drug | 0.45 | 0.67 | 0.11 | 0.98 | inactive |
| Chd1 (chromodomain helicase DNA binding protein 1) | 1 | no change with or without drug | -1.35 | -0.67 | -0.9 | 0.82 | inactive |
| Il25 (interleukin 25) | 1 | no change with or without drug | 0.34 | 0.84 | -0.11 | 0.97 | inactive |
| 4933427E11Rik (RIKEN cDNA 4933427E11 gene) | 1 | no change with or without drug | -0.45 | 0.67 | -0.79 | 0.9 | inactive |
| Zfp715 (zinc finger protein 715) | 1 | no change with or without drug | 0 | 0.17 | 0 | 0.94 | inactive |
| Or6c35 (olfactory receptor family 6 subfamily C member 35) | 1 | no change with or without drug | -0.45 | -0.51 | 0 | 0.9 | inactive |
| Dcaf12 (DDB1 and CUL4 associated factor 12) | 1 | no change with or without drug | 0.45 | 0.51 | 0.22 | 0.98 | inactive |
| Kremen2 (kringle containing transmembrane protein 2) | 1 | no change with or without drug | 0 | 0.17 | 0 | 0.94 | inactive |
| Isg20l2 (interferon stimulated exonuclease gene 20-like 2) | 1 | no change with or without drug | 0.45 | 1.18 | -0.22 | 0.98 | inactive |
| Aqp2 (aquaporin 2) | 1 | no change with or without drug | 0.45 | 0 | 0.56 | 0.98 | inactive |
| Ces1d (carboxylesterase 1D) | 1 | no change with or without drug | 0.67 | -0.17 | 0.9 | 1 | inactive |
| Edn2 (endothelin 2) | 1 | no change with or without drug | -1.12 | -0.51 | -0.79 | 0.84 | inactive |
| H1f3 (H1.3 linker histone, cluster member) | 1 | no change with or without drug | -1.24 | 0.51 | -1.46 | 0.83 | inactive |
| Suds3 (suppressor of defective silencing 3 homolog (S. cerevisiae)) | 1 | low cell count with doxorubicin only | -3.82 | -1.52 | -3.15 | 0.6 | active |
| Dennd4a (DENN domain containing 4A) | 1 | no change with or without drug | 0.34 | 0.84 | -0.11 | 0.97 | inactive |
| Dennd4a (DENN domain containing 4A) | 2 | low cell count with doxorubicin only | -2.7 | -1.18 | -2.02 | 0.7 | active |
| Phf7 (PHD finger protein 7) | 1 | no change with or without drug | -1.35 | 0.84 | -1.8 | 0.82 | inactive |
| Gtf3a (general transcription factor III A) | 1 | no change with or without drug | 0.67 | 1.52 | -0.22 | 1 | inactive |
| Ankrd1 (ankyrin repeat domain 1) | 1 | no change with or without drug | -1.24 | -1.18 | -0.45 | 0.83 | inactive |
| Ldaf1 (lipid droplet assembly factor 1) | 1 | no change with or without drug | 1.57 | 0.67 | 1.24 | 1.08 | inactive |
| 1110006O24Rik (RIKEN cDNA 1110006O24 gene) | 1 | no change with or without drug | 1.35 | 0 | 1.57 | 1.06 | inactive |
| Cd24a (CD24a antigen) | 1 | no change with or without drug | -0.56 | 0.67 | -0.9 | 0.89 | inactive |
| Ipmk (inositol polyphosphate multikinase) | 1 | no change with or without drug | 1.12 | -0.84 | 2.02 | 1.04 | inactive |
| Ubc (ubiquitin C) | 1 | no change with or without drug | -1.12 | -0.51 | -0.79 | 0.84 | inactive |
| Ackr3 (atypical chemokine receptor 3) | 1 | no change with or without drug | -0.11 | -0.84 | 0.56 | 0.93 | inactive |
| Gramd1c (GRAM domain containing 1C) | 1 | no change with or without drug | 1.46 | 1.85 | 0.34 | 1.07 | inactive |
| Cyp2c70 (cytochrome P450, family 2, subfamily c, polypeptide 70) | 1 | no change with or without drug | 0 | 0.84 | -0.45 | 0.94 | inactive |
| Rbmx (RNA binding motif protein, X chromosome) | 1 | no change with or without drug | -1.24 | 0.17 | -1.35 | 0.83 | inactive |
| Pla1a (phospholipase A1 member A) | 1 | no change with or without drug | 0.56 | 0.34 | 0.45 | 0.99 | inactive |
| 1700084J12Rik (RIKEN cDNA 1700084J12 gene) | 1 | no change with or without drug | -1.12 | -0.51 | -0.79 | 0.84 | inactive |
| Rbm8a (RNA binding motif protein 8a) | 1 | low cell count with and without drug | -7.76 | -3.2 | -7.31 | 0.25 | inactive |
| Nsun7 (NOL1/NOP2/Sun domain family, member 7) | 1 | no change with or without drug | -0.34 | 0.84 | -0.79 | 0.91 | inactive |
| Mertk (MER proto-oncogene tyrosine kinase) | 1 | no change with or without drug | 0.9 | 0.17 | 0.9 | 1.02 | inactive |
| Dhrs7b (dehydrogenase/reductase 7B) | 1 | no change with or without drug | 0.11 | -0.17 | 0.34 | 0.95 | inactive |
| Ccdc80 (coiled-coil domain containing 80) | 1 | no change with or without drug | 0.67 | 1.18 | 0 | 1 | inactive |
| Ing3 (inhibitor of growth family, member 3) | 1 | no change with or without drug | 0.34 | -0.84 | 1.12 | 0.97 | inactive |
| Cnpy3 (canopy FGF signaling regulator 3) | 1 | no change with or without drug | -1.57 | -1.01 | -0.9 | 0.8 | inactive |
| Vmn1r19 (vomeronasal 1 receptor 19) | 1 | low cell count with doxorubicin only | -2.47 | -0.84 | -2.02 | 0.72 | active |
| Cavin4 (caveolae associated 4) | 1 | high cell count without drug only | 1.35 | 2.53 | -0.22 | 1.06 | inactive |
| Mgp (matrix Gla protein) | 1 | no change with or without drug | -1.12 | 1.69 | -2.02 | 0.84 | inactive |
| Plin4 (perilipin 4) | 1 | no change with or without drug | -1.91 | 0 | -1.91 | 0.77 | inactive |
| Cdk2ap1 (cyclin dependent kinase 2 associated protein 1) | 1 | no change with or without drug | -0.79 | -0.84 | -0.11 | 0.87 | inactive |
| Plxnb3 (plexin B3) | 1 | no change with or without drug | 0 | -0.51 | 0.45 | 0.94 | inactive |
| Notch4 (notch 4) | 1 | no change with or without drug | 0.9 | -0.51 | 1.46 | 1.02 | inactive |
| Sh3bp2 (SH3-domain binding protein 2) | 1 | no change with or without drug | -1.12 | -1.18 | -0.34 | 0.84 | inactive |
| Plin1 (perilipin 1) | 1 | no change with or without drug | -1.12 | 0 | -1.12 | 0.84 | inactive |
| Pcdhga10 (protocadherin gamma subfamily A, 10) | 1 | low cell count with doxorubicin only | -3.37 | -1.18 | -2.81 | 0.64 | active |
| Cmya5 (cardiomyopathy associated 5) | 1 | no change with or without drug | -1.12 | 1.35 | -1.8 | 0.84 | inactive |

Quoted from the entries so far (6 entries):
| gene symbol | reagent | combined z-score class | viability z-score with doxorubicin | viability z-score without drug | z-score of drug to no-drug ratio | doxorubicin viability vs non-targeting | call |
| --- | --- | --- | --- | --- | --- | --- | --- |
| Gtf3a (general transcription factor III A) | 1 | no change with or without drug | 0.67 | 1.52 | -0.22 | 1 | inactive |
| Ankrd1 (ankyrin repeat domain 1) | 1 | no change with or without drug | -1.24 | -1.18 | -0.45 | 0.83 | inactive |
| Ldaf1 (lipid droplet assembly factor 1) | 1 | no change with or without drug | 1.57 | 0.67 | 1.24 | 1.08 | inactive |
| 1110006O24Rik (RIKEN cDNA 1110006O24 gene) | 1 | no change with or without drug | 1.35 | 0 | 1.57 | 1.06 | inactive |
| Cd24a (CD24a antigen) | 1 | no change with or without drug | -0.56 | 0.67 | -0.9 | 0.89 | inactive |
| Ipmk (inositol polyphosphate multikinase) | 1 | no change with or without drug | 1.12 | -0.84 | 2.02 | 1.04 | inactive |
